Measurements taken from patent US20090159876A1, “ORGANIC SEMICONDUCTOR MATERIAL AND ORGANIC FIELD EFFECT TRANSISTOR” (MITSUBISHI CHEMICAL CORPORATION, priority 2005, published 2009).

Assay: Electrical characteristics of organic FET (semiconductor parameter analyzer)
Conditions: for On-Off Ratio: applied voltage Vd of −30 V; for Vt (threshold voltage) / Mobility: nitrogen atmosphere; for Mobility: spin-coated semiconductor layer, from saturation current

SMILES	On-Off Ratio	Vt (threshold voltage) [V]	Mobility	On-Off Ratio (listed as oligothiophene A)
CCCCCCc1ccc(-c2ccc(-c3ccc(-c4ccc(-c5ccc(-c6sc(-c7cc(-c8ccc(CC)cc8)c(-c8ccc(-c9ccc(-c%10ccc(-c%11ccc(-c%12ccc(CCCCCC)s%12)s%11)s%10)s9)s8)s7)cc6-c6ccc(CC)cc6)s5)s4)s3)s2)s1 [Example 6]	4.6 × 10^6	1.2	1.2 × 10^−1 cm^2/Vs	
CCCCCCc1ccc(-c2ccc(-c3sc(-c4cc(-c5ccc(CC)cc5)c(-c5ccc(-c6ccc(CCCCCC)s6)s5)s4)cc3-c3ccc(CC)cc3)s2)s1 [Example 1]	2.7 × 10^6	−0.7	7.0 × 10^−3 cm^2/Vs	2.7×10^6
CCCCCCc1ccc(-c2cc(-c3ccc(CC)cc3)c(-c3ccc(-c4ccc(-c5ccc(-c6sc(-c7cc(-c8ccc(CC)cc8)c(-c8ccc(-c9ccc(-c%10ccc(-c%11sc(-c%12ccc(CCCCCC)s%12)cc%11-c%11ccc(CC)cc%11)s%10)s9)s8)s7)cc6-c6ccc(CC)cc6)s5)s4)s3)s2)s1 [Example 7]	6.1 × 10^3	9	5.7 × 10^−2 cm^2/Vs	
CCCCCCc1ccc(-c2ccc(-c3ccc(-c4sc(-c5cc(-c6ccc(CC)cc6)c(-c6ccc(-c7ccc(-c8ccc(CCCCCC)s8)s7)s6)s5)cc4-c4ccc(CC)cc4)s3)s2)s1 [Example 2]	1.3 × 10^4	−3.4	1.8 × 10^−2 cm^2/Vs	
CCCCCCc1ccc(-c2ccc(-c3ccc(-c4ccc(-c5sc(-c6cc(-c7ccc(CC)cc7)c(-c7ccc(-c8ccc(-c9ccc(-c%10ccc(CCCCCC)s%10)s9)s8)s7)s6)cc5-c5ccc(CC)cc5)s4)s3)s2)s1 [Example 3]	1.2 × 10^3	0.44	1.8 × 10^−2 cm^2/Vs	
CCCCCCc1ccc(-c2ccc(-c3ccc(-c4ccc(-c5sc(-c6ccc(CCCCCC)s6)cc5-c5ccc(CC)cc5)s4)s3)s2)s1 [Example 5]	2.4 × 10^1	39	1.3 × 10^−2 cm^2/Vs	
c1csc(-c2ccc(-c3ccc(-c4ccc(-c5ccc(-c6cccs6)s5)s4)s3)s2)c1 [α-6T, α-sezithiophene, reference compound]	6.6 × 10^3	12	4.5 × 10^−2 cm^2/Vs	
